No constants are given. Whether binding was seen depends on the method and setting. Some binding calls cover weakened binding; strength is not graded here.
Target: cynomolgus monkey platelet GPVI on monkey platelets (cynomolgus monkey)
Test: flow cytometry on cynomolgus monkey platelets, 3-4 µg/mL antibody, anti-human IgM-FITC

Amino acid sequences for entries named in this document (tags omitted). A change or cut given only in a name is not applied to a line headed by its entry.
UniProt P01591: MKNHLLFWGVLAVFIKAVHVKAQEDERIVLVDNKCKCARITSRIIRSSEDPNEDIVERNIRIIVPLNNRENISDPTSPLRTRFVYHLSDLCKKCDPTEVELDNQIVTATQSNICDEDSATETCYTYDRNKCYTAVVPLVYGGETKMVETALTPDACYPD

Q: With “mouse/human chimeric IgM-type F1232-37-2, cF1232-37-2 (IgM) (from UniProt P01591 23-159) (antibody)” as the substance, how does the binding read?
A: binds

Source: patent US20090041783A1
